This is an account of results in the supplement of paper PMC4635364.

Assay [1] concerns ReNCell VM. Briefly: neuronal differentiation score (DCX+ cell fraction vs untreated, manual image score) (score (-3 to 3)); higher = more neuronal differentiation. To be noted: 2 uM, 2 weeks.
Assay [2] concerns ReNCell VM. Put plainly: dopaminergic neuron differentiation score (TH+ cell fraction vs untreated, manual image score) (score (0 to 3)); higher = more TH+ dopaminergic neuron differentiation. As to conditions: 2 uM, 4 weeks, BDNF 10 ng/ml + GDNF 10 ng/ml.

Structures can show the parent of a compound that is named as a salt. The list shows a part of the results. This data set is noisy: repeats of one test often differ as much as different tests do.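 Human fetal ventral-midbrain neural progenitor line ReNCell VM, differentiated without mitogens. Images stained for doublecortin (early neurons) or tyrosine hydroxylase (dopaminergic neurons) were scored by blinded raters against untreated wells (0 = no change). Repeats and both raters were averaged, and compounds averaging 2 or higher were picked as hits for retesting.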

As for `CN[C@@H]1[C@H](O)[C@H](NC)[C@H]2O[C@@]3(O)C(=O)C[C@@H](C)O[C@H]3O[C@@H]2[C@H]1O`, the neuronal differentiation score in assay [1] (library: Spectrum) is inactive: 0. Further, the “dopaminergic neuron differentiation score” value in assay [2] (library: Spectrum) is inactive: 0.

As for `CC(=O)Nc1ccc(S(=O)(=O)Nc2ccc([N+](=O)[O-])cc2)cc1`, the neuronal differentiation score in assay [1] (library: Spectrum) was inactive: 0. For the same compound, in assay [2] (library: Spectrum), the “dopaminergic neuron differentiation score” value was inactive: 0.

As to `CCOc1ccc(Cc2nccc3cc(OCC)c(OCC)cc23)cc1OCC`, in assay [1] (library: Spectrum), the neuronal differentiation score is inactive: 0. Further, the “dopaminergic neuron differentiation score” value in assay [2] (library: Spectrum) was inactive: 0.

Take `O=C1NC(=O)c2c1c(-c1ccccc1)cc1[nH]c3ccc(O)cc3c21`: in assay [1] (library: Tocriscreen), the neuronal differentiation score was inactive: 0. The “dopaminergic neuron differentiation score” value in assay [2] (library: Tocriscreen) is inactive: 0.

For `Cn1c(=O)c2c(ncn2CC(O)CO)n(C)c1=O` (stereo not given) [Diprophylline], in assay [1] (library: Prestwick), the neuronal differentiation score is inactive: 0. The “dopaminergic neuron differentiation score” value in assay [2] (library: Prestwick) was inactive: 0.

Turning to `CC(=O)O[C@H]1CC(=O)OC(C)(C)[C@@H]2CC(=O)[C@]3(C)[C@H](CC[C@@]4(C)[C@@H](c5ccoc5)OC(=O)[C@H]5O[C@]543)[C@@]12C` [nomilin], the neuronal differentiation score in assay [1] (library: Natural) is active: 3. Also, the “dopaminergic neuron differentiation score” value in assay [2] (library: Natural) is inactive: 0.

For `NC[C@H]1O[C@H](O[C@H]2[C@H](O)[C@@H](O[C@H]3O[C@H](CO)[C@@H](O)[C@H](N)[C@H]3O)[C@H](N)C[C@@H]2N)[C@H](N)C[C@@H]1O`, the neuronal differentiation score in assay [1] (library: Spectrum) is inactive: 0. Further, in assay [2] (library: Spectrum), the “dopaminergic neuron differentiation score” value was inactive: 0.

`CN[C@@H]1[C@H](O)[C@H](NC)[C@H]2O[C@@]3(O)C(=O)C[C@@H](C)O[C@H]3O[C@@H]2[C@H]1O` [Spectinomycin dihydrochloride]: in assay [1] (library: Prestwick), the neuronal differentiation score was inactive: 0. In assay [2] (library: Prestwick), the “dopaminergic neuron differentiation score” value is inactive: 0.

As for `CC1(C)C(=O)C=CC2(C)C1C=CC1(C)C2CCC2(C)C(c3ccoc3)OC(=O)C3OC312` (stereo not given), the neuronal differentiation score in assay [1] (library: Spectrum) was inactive: 0. Moreover, in assay [2] (library: Spectrum), the “dopaminergic neuron differentiation score” value is inactive: 0.

Turning to `COc1ccc(-c2ccc(=N)n(CCCC(=O)O)n2)cc1` [Gabazine bromide], the neuronal differentiation score in assay [1] (library: Prestwick) was inactive: 0. In addition, the “dopaminergic neuron differentiation score” value in assay [2] (library: Prestwick) was inactive: 0.
